Library screen at single concentrations

By UniProt entry, the sequences of proteins in these tests, tags left out. Residues count along the entry.
UniProt Q4DA54, 1-478: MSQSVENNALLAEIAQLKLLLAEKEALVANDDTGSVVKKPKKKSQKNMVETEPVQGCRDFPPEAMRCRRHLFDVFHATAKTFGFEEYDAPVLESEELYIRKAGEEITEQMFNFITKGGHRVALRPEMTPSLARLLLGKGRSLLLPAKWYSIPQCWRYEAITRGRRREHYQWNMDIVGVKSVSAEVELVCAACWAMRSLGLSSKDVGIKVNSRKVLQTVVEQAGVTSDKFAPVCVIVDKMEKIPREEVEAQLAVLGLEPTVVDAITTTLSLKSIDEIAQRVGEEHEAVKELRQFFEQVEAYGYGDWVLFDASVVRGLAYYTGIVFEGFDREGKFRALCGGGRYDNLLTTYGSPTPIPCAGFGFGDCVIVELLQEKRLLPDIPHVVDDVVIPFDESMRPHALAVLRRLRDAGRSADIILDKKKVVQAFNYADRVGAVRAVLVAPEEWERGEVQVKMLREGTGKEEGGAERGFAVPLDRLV
UniProt A4I591, 1-473: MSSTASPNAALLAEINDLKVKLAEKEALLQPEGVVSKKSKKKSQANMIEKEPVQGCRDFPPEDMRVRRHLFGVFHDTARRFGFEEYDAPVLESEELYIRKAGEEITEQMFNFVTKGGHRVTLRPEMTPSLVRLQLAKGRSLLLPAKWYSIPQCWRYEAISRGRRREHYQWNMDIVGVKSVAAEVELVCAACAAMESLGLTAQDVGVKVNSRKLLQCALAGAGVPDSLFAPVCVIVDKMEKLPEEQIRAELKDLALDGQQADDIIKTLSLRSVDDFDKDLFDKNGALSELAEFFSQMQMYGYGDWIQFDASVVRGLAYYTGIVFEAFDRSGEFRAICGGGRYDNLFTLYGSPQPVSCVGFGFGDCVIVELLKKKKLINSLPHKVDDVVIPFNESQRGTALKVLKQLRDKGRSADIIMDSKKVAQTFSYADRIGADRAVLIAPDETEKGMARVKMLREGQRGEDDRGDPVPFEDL

Results are given as percent effect. The record does not define 0% and 100%; most values in the screen are far below 50% and negative numbers occur (in some assays of this library far below -100). Compounds were drawn at random from those tested, without regard to their results. A dash means the value is not listed here; it may have been measured.

A: 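Assay of Toxoplasma gondii numbers, read through their beta-galactosidase reporter with a colour substrate. Compounds at 10 µM. The record gives no direction; the compounds picked for IC50 retests had high values, so higher reads as fewer parasites. Of about 67,000 compounds tested this way, about 260 (0.38%) reached 50% or more in at least one test.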
B: 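Histidine-tRNA ligase, Trypanosoma cruzi CL Brener (UniProt Q4DA54). Enzyme assay of histidyl-tRNA synthetase; the read-out is not stated. Tested at 30 µM. Higher reads as stronger inhibition (inferred: compounds with an IC50 in retests scored well above the rest). About 69,000 compounds were tested under these conditions; 0.045% (about 31) showed 50% or more at least once.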
C: 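Histidine-tRNA ligase, Leishmania infantum (UniProt A4I591). Enzyme assay of histidyl-tRNA synthetase; the read-out is not stated. Tested at 30 µM. The record gives no direction; compounds that gave an IC50 in retests scored well above the rest, so higher reads as stronger inhibition. The assay is labelled LdHisRS but filed under L. infantum. Of about 69,000 compounds tested this way, about 410 (0.6%) reached 50% or more in at least one test.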
D: 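Whole-parasite assay of Trypanosoma brucei over 72 hours; the read-out is not stated. Concentration: 30 µM. Direction is inferred from retests: higher values go with stronger inhibition. Values scatter widely below zero; nearly all retest evidence comes from the higher of the two concentrations used. About 64,000 compounds were tested under these conditions; 1.5% (about 940) showed 50% or more at least once.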

SMILES	A	B	C	D
CC(NC(=O)NC1CCN(Cc2ccccn2)CC1)c1nncn1C (stereo not given)	1.665%	0.4926%	6.579%	-26.93%
Cc1nc(C)n(CC2CCCN2CCC(=O)N2CCCCC2)n1 (stereo not given)	-7.763%	8.455%	13.27%	-
CCOC(C)c1noc(CN2CCN(Cc3cccc(F)c3)CC2)n1 (stereo not given)	-56.04%	5.806%	-1.01%	-25.97%
CCCN1CCC(N(Cc2ncc(C)o2)C(C)=O)C1 (stereo not given)	8.453%	4.237%	13.21%	7.756%
O=C1CC[C@H]2CN(C3CCOCC3)CC[C@H]2N1CCC1=CCCCC1	-	3.352%	15.62%	-
COc1ncnc(N)c1CNCC(C)Oc1ccccc1Cl (stereo not given)	-3.082%	14.47%	14.17%	-20.54%
O=C(O)C(F)(F)F.O=C(O)C(F)(F)F.[H][C@@]12COC[C@H](C(=O)NCc3ccccn3)[C@]1([H])CN(Cc1ccoc1)C2	-1.883%	-	-	-
O=C(O)C(F)(F)F.[H][C@@]12CN(Cc3ccc(C)cc3)C[C@]1([H])CN(C(=O)c1cccn1C)C2	-6.324%	-	-	2.794%
[H][C@]12CNC[C@@]1(C(=O)N(C)Cc1nc(C)c[nH]1)CN(c1ncccn1)C2	-1.064%	-	-	2.473%
Cc1nc(C)n(CC2CCCN2Cc2cn3ccccc3n2)n1 (stereo not given)	3.271%	4.52%	15.52%	13.08%
Cc1nc[nH]c1-c1nccn1CCN(C)S(C)(=O)=O	-12.78%	3.415%	15.25%	-16%
COc1cccc2ccc(N3CCC(O)(C(=O)O)CC3)nc12	15.39%	4.478%	-1.205%	-12.71%
CNc1nc(CNC(=O)Nc2cccc(Cl)c2OC)cs1	-15.26%	9.467%	21.43%	10.34%
CNC(=O)C1CCCCN1C(=O)c1csc(-c2ccccc2)n1 (stereo not given)	3.95%	4.902%	15%	-30.83%
Cn1ccnc1CN1CCC(F)(F)C2(CCN(c3cccnc3)C2)C1.O=C(O)C(F)(F)F.O=C(O)C(F)(F)F (stereo not given)	-3.948%	-	-	-58.8%
Cc1[nH]ccc1C(=O)NC1CCC(N2C(=O)CCC2=O)CC1 (stereo not given)	12.12%	5.946%	-2.74%	-3.907%
O=C(O)C(F)(F)F.[H][C@@]12COC[C@]1(COCC)CN(Cc1cccc(OC)c1)C2	-34.76%	-	-	-14.05%
O=C1CCCN1Cc1ncn2c1CN(C(=O)NC1CCCCC1)CCC2	-29%	8.04%	24.47%	-12.52%
CCN(Cc1ccccc1O)CC1(C)Cc2c(N)nc(N)nc2O1 (stereo not given)	4.913%	9.848%	13.04%	-9.98%
NC(=O)CN1CCCC(CCCc2ccccn2)(C(N)=O)C1 (stereo not given)	-6.64%	4.255%	3.125%	-16.2%
COCCC(=O)N1CCC2(COCc3cnc(N4CCOCC4)nc32)C1 (stereo not given)	-1.608%	3.825%	10.95%	4.015%
Cc1cncnc1C1CCN(C(=O)C2(C)CCCCN2C)CC1 (stereo not given)	-12.33%	2.825%	8.392%	2.276%
CN(C)c1nccc(C2CCN(C3CCCCC3O)CC2)n1 (stereo not given)	-2.842%	11.65%	9.929%	-
Cc1nccn1-c1cc(CNC(=O)NCC2CCCO2)ccn1 (stereo not given)	-2.782%	5.78%	16.67%	13.42%
Cc1cnc(N2CC[C@@H](N3CCOCC3)[C@@H]2Cc2ccncc2)nc1.O=C(O)C(F)(F)F.O=C(O)C(F)(F)F	0.06313%	-	-	-59.15%
[H][C@]12CC[C@]([H])(CN(Cc3cccnc3)C1)N(C(=O)c1ccncc1F)C2	4.899%	-	-	-5.606%
Cc1ccc(CN2Cc3ccnn3CC(COCc3cccnc3)C2)o1 (stereo not given)	-6.386%	9.783%	19.74%	-158.5%
CCn1ncc2c1CCCC2NCc1cccc2c1OCCO2 (stereo not given)	8.718%	-2.632%	5.405%	6.251%
Cc1ccc(CNC(C)c2ccc(N3CCN(C)CC3)c(F)c2)o1 (stereo not given)	-	9.36%	22.37%	-
[H][C@]12CCNC[C@@]1([H])OCCN(Cc1csc(C)n1)C2	1.011%	-	-	1.446%
Cc1oc(-c2ccccc2)nc1CN1CCC(c2ccnn2C)CC1	14.33%	12.88%	29.63%	-19.1%
CN(Cc1cccnc1)C(=O)NC1CCN(Cc2ccccn2)CC1	-13.8%	4.035%	12.5%	-7.758%
CCS(=O)(=O)N1CCCC2(CCCN2Cc2cccc(F)c2)C1 (stereo not given)	-	3.681%	11.97%	-
Cc1nc(C)n(CC2CCCN2CC(=O)NCCC#N)n1 (stereo not given)	-12.11%	1.22%	8.434%	-5.646%
O=C(O)C(F)(F)F.O=C(O)C(F)(F)F.[H][C@@]12OCCN(Cc3ccoc3)[C@@]1([H])CCC2COCc1cccnc1 (stereo not given in full)	12.37%	-	-	-7.192%
NC(=O)C1CCCN1Cc1ccccc1NC(=O)Cc1cccc(F)c1 (stereo not given)	-1.457%	4.082%	20%	12.31%
CC(C)CN1C[C@H]2CCN(C(=O)C3CCCO3)CC[C@H]2S1(=O)=O (stereo not given in full)	-	3.797%	13.79%	-
CNc1nc(C2CCCN(C(=O)CNC(C)=O)C2)nc2c1CN(C)CC2 (stereo not given)	21.68%	2.281%	7.586%	-9.302%
Cc1nc(CN2CCC23CCN(C(=O)c2ccncc2)CC3)cs1	-4.202%	2.454%	15.38%	-45.9%
OC1CCCN(Cc2ccnc(-c3cccnc3)n2)C1 (stereo not given)	-	2.247%	8%	-
[H][C@@]12NC(=O)N[C@@H](c3ccccc3)[C@]1([H])CCCO2	-3.229%	-	-	-11.46%
C=Cn1ncc(CN2C[C@@H]3CCCN3C[C@@H]2Cc2ccccc2)c1C	-	-1.622%	16.67%	-
CCN(CC1CCOC1)C(=O)NCc1nnc2n1CCCCC2 (stereo not given)	22.05%	11.11%	13.83%	-46.93%

Once more, the final 6:

SMILES,A,B,C,D
CNc1nc(C2CCCN(C(=O)CNC(C)=O)C2)nc2c1CN(C)CC2 (stereo not given),21.68%,2.281%,7.586%,-9.302%
Cc1nc(CN2CCC23CCN(C(=O)c2ccncc2)CC3)cs1,-4.202%,2.454%,15.38%,-45.9%
OC1CCCN(Cc2ccnc(-c3cccnc3)n2)C1 (stereo not given),-,2.247%,8%,-
[H][C@@]12NC(=O)N[C@@H](c3ccccc3)[C@]1([H])CCCO2,-3.229%,-,-,-11.46%
C=Cn1ncc(CN2C[C@@H]3CCCN3C[C@@H]2Cc2ccccc2)c1C,-,-1.622%,16.67%,-
CCN(CC1CCOC1)C(=O)NCc1nnc2n1CCCCC2 (stereo not given),22.05%,11.11%,13.83%,-46.93%

From ChEMBL document CHEMBL3988442, “University of Dundee, Small-Polar-MMV Screening Library” (2021).